# Some of the results follow.
# B1: CD4 (Rattus norvegicus), P05540 (protein)
# chain: MCRGFSFRHLLPLLLLQLSKLLVVTQGSTSITAYKSEGESAEFSFPLNLGEESLQGELRWKAEKAPSSQSWITFSLKNQKVSVQKSTSNPKFQLSETLPLTLQIPQVSLQFAGSGNLTLTLDRGILYQEVNLVVMKVTQPDSNTLTCEVMGPTSPKMRLILKQENQEARVSRQEKVIQVQAPEAGVWQCLLSEGEEVKMDSKIQVLSKGLNSGGGSGGGTGGGDLAPQMLRELQETNAALQDVRELLRQQVKEITFLKNTVMECDACGLDRNLPPLAPLGPHPETLVKVKDAEDQLGARVGYIELDLNSGKILESFRPEERFPMMSTFKVLLCGAVLSRIDAGQEQLGRRIHYSQNDLVEYSPVTEKHLTDGMTVRELCSAAITMSDNTAANLLLTTIGGPKELTAFLHNMGDHVTRLDRWEPELNEAIPNDERDTTMPVAMATTLRKLLTGELLTLASRQQLIDWMEADKVAGPLLRSALPAGWFIADKSGAGERGSRGIIAALGPDGKPSRIVVIYTTGSQATMDERNRQIAEIGASLIKHW
# Key:
# Experiment in all cases: glycan array binding signal (z-score within array); higher = stronger binding
# Details in all cases: glycan notation: IUPAC condensed, linker removed
# Fuc(a1-2)Gal = molecular target: Fuc(a1-2)Gal
# How it was run: (§1)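 Columns mapping to the same glycan were averaged after glycan names were converted to IUPAC-condensed notation. The data come from 3228 arrays in the Consortium for Functional Glycomics database, limited to those with an available protein sequence. Binding is reported as a within-array Z-score averaged across arrays of one protein sequence and across linkers.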
# Fuc(a1-2)Gal(b1-3)GalNAc = molecular target: Fuc(a1-2)Gal(b1-3)GalNAc
# How it was run: as §1
# [1] = molecular target: Fuc(a1-2)Gal(b1-3)GalNAc(a1-3)[Fuc(a1-2)]Gal(b1-4)Glc
# How it was run: as §1
# [2] = molecular target: Fuc(a1-2)Gal(b1-3)GalNAc(a1-3)[Fuc(a1-2)]Gal(b1-4)GlcNAc
# How it was run: as §1
# [3] = molecular target: Fuc(a1-2)Gal(b1-3)GalNAc(b1-3)Gal
# How it was run: as §1
# [4] = molecular target: Fuc(a1-2)Gal(b1-3)GalNAc(b1-3)Gal(a1-4)Gal(b1-4)Glc
# How it was run: as §1
# [5] = molecular target: Fuc(a1-2)Gal(b1-3)GalNAc(b1-4)[Neu5Ac(a2-3)]Gal(b1-4)Glc
# How it was run: as §1
# Fuc(a1-2)Gal(b1-3)GlcNAc = molecular target: Fuc(a1-2)Gal(b1-3)GlcNAc
# How it was run: as §1
# [6] = molecular target: Fuc(a1-2)Gal(b1-3)GlcNAc(b1-2)Man(a1-3)[Fuc(a1-2)Gal(b1-3)GlcNAc(b1-2)Man(a1-6)]Man(b1-4)GlcNAc(b1-4)GlcNAc
# How it was run: as §1
# [7] = molecular target: Fuc(a1-2)Gal(b1-3)GlcNAc(b1-2)Man(a1-3)[Fuc(a1-2)Gal(b1-3)GlcNAc(b1-2)Man(a1-6)]Man(b1-4)GlcNAc(b1-4)[Fuc(a1-6)]GlcNAc
# How it was run: as §1
# [8] = molecular target: Fuc(a1-2)Gal(b1-3)GlcNAc(b1-3)Gal(b1-4)Glc
# How it was run: as §1
# [9] = molecular target: Fuc(a1-2)Gal(b1-3)GlcNAc(b1-3)GalNAc
# How it was run: as §1
# [10] = molecular target: Fuc(a1-2)Gal(b1-3)GlcNAc(b1-3)[Fuc(a1-2)Gal(b1-3)GlcNAc(b1-6)]GalNAc
# How it was run: as §1
# [11] = molecular target: Fuc(a1-2)Gal(b1-3)GlcNAc(b1-3)[Gal(b1-4)GlcNAc(b1-6)]Gal(b1-4)Glc
# How it was run: as §1
# [12] = molecular target: Fuc(a1-2)Gal(b1-3)GlcNAc(b1-3)[Neu5Ac(a2-6)Gal(b1-4)GlcNAc(b1-6)]Gal(b1-4)Glc
# How it was run: as §1
# [13] = molecular target: Fuc(a1-2)Gal(b1-3)GlcNAc6S
# How it was run: as §1
# [14] = molecular target: Fuc(a1-2)Gal(b1-3)[Fuc(a1-4)]GlcNAc
# How it was run: as §1
# [15] = molecular target: Fuc(a1-2)Gal(b1-3)[Fuc(a1-4)]GlcNAc(b1-2)Man(a1-3)[Fuc(a1-2)Gal(b1-3)[Fuc(a1-4)]GlcNAc(b1-2)Man(a1-3)]Man(b1-4)GlcNAc(b1-4)GlcNAc
# How it was run: as §1
# [16] = molecular target: Fuc(a1-2)Gal(b1-3)[Fuc(a1-4)]GlcNAc(b1-2)Man(a1-3)[Fuc(a1-2)Gal(b1-3)[Fuc(a1-4)]GlcNAc(b1-2)Man(a1-6)]Man(b1-4)GlcNAc(b1-4)[Fuc(a1-6)]GlcNAc(b1-4)[Fuc(a1-6)]GlcNAc
# How it was run: as §1
# [17] = molecular target: Fuc(a1-2)Gal(b1-3)[Fuc(a1-4)]GlcNAc(b1-3)[Fuc(a1-3)[Gal(b1-4)]GlcNAc(b1-6)]Gal(b1-4)Glc
# How it was run: as §1
# [18] = molecular target: Fuc(a1-2)Gal(b1-3)[Fuc(a1-4)]GlcNAc(b1-3)[Gal(b1-4)GlcNAc(b1-6)]Gal(b1-4)Glc
# How it was run: as §1
# [19] = molecular target: Fuc(a1-2)Gal(b1-4)Fuc(a1-3)]GlcNAc(b1-2)Man(a1-3)[Fuc(a1-2)Gal(b1-4)[Fuc(a1-3)]GlcNAc(b1-2)Man(a1-6)]Man(b1-4)GlcNAc(b1-4)GlcNAc
# How it was run: as §1
# Fuc(a1-2)Gal(b1-4)Glc = molecular target: Fuc(a1-2)Gal(b1-4)Glc
# How it was run: as §1
# Fuc(a1-2)Gal(b1-4)Glc6S = molecular target: Fuc(a1-2)Gal(b1-4)Glc6S
# How it was run: as §1
# Fuc(a1-2)Gal(b1-4)GlcNAc = molecular target: Fuc(a1-2)Gal(b1-4)GlcNAc
# How it was run: as §1
# [20] = molecular target: Fuc(a1-2)Gal(b1-4)GlcNAc(b1-2)Man
# How it was run: as §1
# [21] = molecular target: Fuc(a1-2)Gal(b1-4)GlcNAc(b1-2)Man(a1-3)[Fuc(a1-2)Gal(b1-4)GlcNAc(b1-2)Man(a1-6)]Man(b1-4)GlcNAc(b1-4)GlcNAc
# How it was run: as §1
# [22] = molecular target: Fuc(a1-2)Gal(b1-4)GlcNAc(b1-2)Man(a1-3)[Fuc(a1-2)Gal(b1-4)GlcNAc(b1-2)Man(a1-6)]Man(b1-4)GlcNAc(b1-4)[Fuc(a1-6)]GlcNAc
# How it was run: as §1
# [23] = molecular target: Fuc(a1-2)Gal(b1-4)GlcNAc(b1-2)[Fuc(a1-2)Gal(b1-4)GlcNAc(b1-4)]Man(a1-3)[Fuc(a1-2)Gal(b1-4)GlcNAc(b1-2)Man(a1-6)]Man(b1-4)GlcNAc(b1-4)GlcNAc
# How it was run: as §1
# [24] = molecular target: Fuc(a1-2)Gal(b1-4)GlcNAc(b1-3)Gal(b1-4)GlcNAc
# How it was run: as §1
binder,measurement,setting,value
B1,glycan array binding signal (z-score),Fuc(a1-2)Gal,0.909
same,glycan array binding signal (z-score),Fuc(a1-2)Gal(b1-3)GalNAc,-0.186
same,glycan array binding signal (z-score),[1],0.278
same,glycan array binding signal (z-score),[2],-0.234
same,glycan array binding signal (z-score),[3],0.94
same,glycan array binding signal (z-score),[4],-0.596
same,glycan array binding signal (z-score),[5],-0.581
same,glycan array binding signal (z-score),Fuc(a1-2)Gal(b1-3)GlcNAc,-0.122
same,glycan array binding signal (z-score),[6],-0.35
same,glycan array binding signal (z-score),[7],0.03
same,glycan array binding signal (z-score),[8],-0.954
same,glycan array binding signal (z-score),[9],0.495
same,glycan array binding signal (z-score),[10],0.107
same,glycan array binding signal (z-score),[11],-0.355
same,glycan array binding signal (z-score),[12],-0.447
same,glycan array binding signal (z-score),[13],-0.562
same,glycan array binding signal (z-score),[14],0.063
same,glycan array binding signal (z-score),[15],1.64
same,glycan array binding signal (z-score),[16],0.558
same,glycan array binding signal (z-score),[17],-0.716
same,glycan array binding signal (z-score),[18],-0.81
same,glycan array binding signal (z-score),[19],-0.349
same,glycan array binding signal (z-score),Fuc(a1-2)Gal(b1-4)Glc,1.27
same,glycan array binding signal (z-score),Fuc(a1-2)Gal(b1-4)Glc6S,1.96
same,glycan array binding signal (z-score),Fuc(a1-2)Gal(b1-4)GlcNAc,-1.16
same,glycan array binding signal (z-score),[20],-1.34
same,glycan array binding signal (z-score),[21],0.007
same,glycan array binding signal (z-score),[22],0.12
same,glycan array binding signal (z-score),[23],1.76
same,glycan array binding signal (z-score),[24],-1.2

# Fetched one by one from the entries so far (two):
binder,measurement,setting,value
B1,glycan array binding signal (z-score),[17],-0.716
same,glycan array binding signal (z-score),[14],0.063
